The whole screen tested about 340,000 compounds, of which about 6,200 (1.8%) were called active. Inconclusive results, whose numbers are uncertain, are shown with a selection of clear calls. Calls come from the whole dose curve; as a rule, active = well fitted activation curve with a large enough effect; inconclusive = small, poorly fitted or top-dose-only effect; inactive = no such curve, though single readings can be large or run the other way. A potency beside an inconclusive call is a rough fit, not a confirmed value.
Test: A quantitative high throughput screen for small molecules that induce DNA re-replication in SW480 colon adenocarcinoma cells. Note: nearly all actives have a fitted effect of over 55% in size.
Settings: Hoechst DNA content imaging, 48 h; series mostly up to 46.1 µM
Procedure, shortened: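 250 cells/well; 23 nL cpd via pin tool; 48 hr, 37 C, 5% CO2; Hoechst 40 min; imager read of total nuclear intensity, ex 405/em 500-530 nm.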
In the case of `CCCCc1c(C)[nH]c2nc3ccccc3n2c1=O`, the Potency is reported as “inactive”. In the case of `COc1ccccc1OCC(=O)Nc1oc(-c2ccccc2)c(-c2ccccc2)c1C#N`, the Potency is reported as “inactive”. With `COc1ccc(-c2c(C(C)=O)c(C)nc3sc4c(=N)n(N)cnc4c23)cc1` the Potency was inconclusive: 2.31 µM [activator, single point]. For `CCN1CCN(c2ccc(S(=O)(=O)N3CCCCC3)cc2NC(=O)/C=C/c2ccc([N+](=O)[O-])cc2)CC1`, the Potency was “inactive”. With `Cc1ccc(/C=N/n2cc(-c3ccccc3)[nH]c2=S)s1` the Potency was active: 18.4 µM. For `Nc1nc(NCc2ccco2)nc(Nc2cccc(F)c2)c1[N+](=O)[O-]`, the Potency was inconclusive: 29.1 µM [activator, single point]. With `O=[N+]([O-])c1ccc(O)c(/C=N/NC(=S)Nc2ccc(Cl)cc2Cl)c1` the Potency was inconclusive: 29.1 µM [activator, single point]. With `N#Cc1cc2c(nc1S(=O)(=O)Cc1ccccc1)CCCC2` the Potency was “inactive”. For `CC(C)c1ccc(NC(=S)NC2CCCCCC2)cc1`, the Potency was inconclusive: 29.1 µM [activator, single point]. With `C=CCN(c1ccccc1OC)S(=O)(=O)c1cccc(C(=O)NCC(c2ccc(OC)cc2)N2CCCC2)c1` (centres undefined) the Potency was inconclusive: 23.1 µM [activator, single point]. With `COc1ccc(-c2n[nH]c3c2CN(C(=O)c2ccc(F)cc2)CC3)cc1` the Potency was inconclusive: 0.0058 µM [activator, full curve, poor fit]. With `COc1ccccc1OCCNC(=O)C1CC(=O)N(Cc2ccc(C)cc2)C1` (centres undefined) the Potency was inconclusive: 32.6 µM [activator, single point]. With `CCCn1nnnc1NCc1c(Cl)cccc1Cl` the Potency was inconclusive: 0.0052 µM [activator, full curve, poor fit]. For `CC(NC(=O)c1ccc(N2CCNCC2)c([N+](=O)[O-])c1)C12CC3CC(CC(C3)C1)C2` (centres undefined), the Potency was inconclusive: 29.1 µM [activator, single point]. For `Cc1ccccc1CN1CCC(C(=O)Nc2ccc(Oc3cccnc3)cc2)CC1`, the Potency was inconclusive: 29.1 µM [activator, single point]. With `CC(CCc1ccccc1)NC(=O)CSc1nnnn1C` (centres undefined) the Potency was inconclusive: 18.4 µM [activator, partial curve, poor fit]. In the case of `O=C(COc1ccc(Br)cc1CNCCCN1CCOCC1)Nc1ccccc1`, the Potency is reported as inconclusive: 14.1 µM [activator, partial curve, poor fit]. With `Cc1ccc(NC(=O)c2ccc(NCc3ccco3)c([N+](=O)[O-])c2)cc1Cl` the Potency was “inactive”. With `COc1ccc(NC(=O)CCSc2ccc3ccccc3n2)cc1` the Potency was “inactive”.
Potency is the fitted concentration of half-maximal effect.
